Experimental data taken from paper PMC11837617.
No constants are given. Whether binding was seen depends on the method and setting. Binding seen in cells or lysates may run through a third protein. Some binding calls cover weakened binding; strength is not graded here.

Amino acid sequences for entries named in this document (tags omitted).
UniProt Q9Z0Z3: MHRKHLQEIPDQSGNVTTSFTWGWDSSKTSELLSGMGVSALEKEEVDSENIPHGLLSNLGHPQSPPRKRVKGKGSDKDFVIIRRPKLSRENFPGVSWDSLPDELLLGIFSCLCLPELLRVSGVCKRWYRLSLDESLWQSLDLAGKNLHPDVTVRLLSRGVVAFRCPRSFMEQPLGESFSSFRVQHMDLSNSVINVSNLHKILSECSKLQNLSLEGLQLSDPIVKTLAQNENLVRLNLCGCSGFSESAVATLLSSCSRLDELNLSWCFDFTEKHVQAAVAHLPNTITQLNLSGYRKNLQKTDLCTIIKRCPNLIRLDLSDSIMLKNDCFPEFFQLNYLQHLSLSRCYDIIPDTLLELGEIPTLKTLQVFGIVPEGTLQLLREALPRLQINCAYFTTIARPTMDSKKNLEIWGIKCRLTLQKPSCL
UniProt Q08775: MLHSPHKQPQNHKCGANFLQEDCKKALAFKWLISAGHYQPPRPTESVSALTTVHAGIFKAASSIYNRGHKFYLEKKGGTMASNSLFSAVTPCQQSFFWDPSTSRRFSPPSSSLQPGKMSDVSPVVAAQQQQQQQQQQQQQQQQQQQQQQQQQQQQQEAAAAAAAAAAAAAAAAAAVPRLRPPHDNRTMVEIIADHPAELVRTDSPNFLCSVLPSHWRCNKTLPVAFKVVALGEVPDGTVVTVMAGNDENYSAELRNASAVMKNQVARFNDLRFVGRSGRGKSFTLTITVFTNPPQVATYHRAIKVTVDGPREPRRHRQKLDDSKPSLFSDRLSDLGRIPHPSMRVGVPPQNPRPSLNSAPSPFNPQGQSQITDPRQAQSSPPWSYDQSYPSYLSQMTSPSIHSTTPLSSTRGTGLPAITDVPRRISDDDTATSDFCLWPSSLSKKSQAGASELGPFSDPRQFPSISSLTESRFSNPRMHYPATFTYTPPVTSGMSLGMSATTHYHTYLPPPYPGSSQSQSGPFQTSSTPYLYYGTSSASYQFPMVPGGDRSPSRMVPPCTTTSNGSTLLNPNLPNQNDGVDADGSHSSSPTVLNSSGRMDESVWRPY

Target: S-phase kinase-associated protein 2 (UniProt Q9Z0Z3)
Test: co-IP; cells lysed in RIPA buffer on ice, lysate pre-cleared with protein A + G agarose, incubated with 1 µg antibody or IgG overnight at 4℃, precipitated with protein A + G agarose, Western blotting

Runt-related transcription factor 2 (from UniProt Q08775 1-607)
binding: binds
